No constants are given. Whether binding was seen depends on the method and setting. In cells and extracts the contact can be indirect. Binding calls can cover weak binding; strength is not graded here. Tags and fused reporters may be left off the sequences shown.
Legend:
GFP-R1-5 (human) = assay: pull-down
GFP-R1-6 (human) = assay: pull-down

B1: GST-Sec23IP (protein, UniProt Q9Y6Y8 1-1000)
chain: MAERKPNGGSGGASTSSSGTNLLFSSSATEFSFNVPFIPVTQASASPASLLLPGEDSTDVGEEDSFLGQTSIHTSAPQTFSYFSQVSSSSDPFGNIGQSPLTTAATSVGQSGFPKPLTALPFTTGSQDVSNAFSPSISKAQPGAPPSSLMGINSYLPSQPSSLPPSYFGNQPQGIPQPGYNPYRHTPGSSRANPYIAPPQLQQCQTPGPPAHPPPSGPPVQMYQMPPGSLPPVPSSVQSPAQQQVPARPGAPSVQVPSPFLLQNQYEPVQPHWFYCKEVEYKQLWMPFSVFDSLNLEEIYNSVQPDPESVVLGTDGGRYDVYLYDRIRKAAYWEEEPAEVRRCTWFYKGDTDSRFIPYTEEFSEKLEAEYKKAVTTNQWHRRLEFPSGETIVMHNPKVIVQFQPSSVPDEWGTTQDGQTRPRVVKRGIDDNLDEIPDGEMPQVDHLVFVVHGIGPVCDLRFRSIIECVDDFRVVSLKLLRTHFKKSLDDGKVSRVEFLPVHWHSSLGGDATGVDRNIKKITLPSIGRFRHFTNETLLDILFYNSPTYCQTIVEKVGMEINHLHALFMSRNPDFKGGVSVAGHSLGSLILFDILSNQKDLNLSKCPGPLAVANGVVKQLHFQEKQMPEEPKLTLDESYDLVVENKEVLTLQETLEALSLSEYFSTFEKEKIDMESLLMCTVDDLKEMGIPLGPRKKIANFVEHKAAKLKKAASEKKAVAATSTKGQEQSAQKTKDMASLPSESNEPKRKLPVGACVSSVCVNYESFEVGAGQVSVAYNSLDFEPEIFFALGSPIAMFLTIRGVDRIDENYSLPTCKGFFNIYHPLDPVAYRLEPMIVPDLDLKAVLIPHHKGRKRLHLELKESLSRMGSDLKQGFISSLKSAWQTLNEFARAHTSSTQLQEELEKVANQIKEEEEKQVVEAEKVVESPDFSKDEDYLGKVGMLNGGRRIDYVLQEKPIESFNEYLFALQSHLCYWESEDTALLLLKEIYRTMNISPEQPQH
**Q.** With B1 as the binder, how does the binding (GFP-R1-5 (human)) read?
**A.** binds

**Q.** What about the binding (GFP-R1-6 (human)) of the same binder?
**A.** binds
